Test results reported in patent publication US20240075050A1, “Methods and Compositions for Treating Leucine Rich Repeat Kinase 2 (LRRK2)-Associated Disorder or Condition” (University of Connecticut, priority 2022, published 2024).
Several values for one entry are separate records, joined by “and”; a condition that tells them apart may be missing. Equal values may be shown once.

Tested on: ATIC KO cells
Assay: AICAR/ZMP in WT and ATIC knockout cells measured by UPLC
Format: cell-based, human
Conditions: for AICAR/ZMP concentration: UPLC

NC(=O)c1ncn([C@@H]2O[C@H](COP(=O)(O)O)[C@@H](O)[C@H]2O)c1N [AICAR/ZMP, 5-aminoimidazole-4-carboxamide ribonucleotide]
AICAR/ZMP concentration (ATIC KO cells): 1557 ng/mL
AICAR/ZMP Average (ATIC knockout cells, average of KO-1 to KO-3, UPLC): 1557.21 ng/mL
AICAR/ZMP (ATIC knockout cells, samples KO-1, KO-2, KO-3, UPLC): 1595.86 ng/mL and 1585.20 ng/mL and 1490.57 ng/mL
AICAR/ZMP concentration (WT cells): undetectable
